Columns and labels:
MCF-7 cancer cell line = assay: Sulforhodamine-B cytotoxicity assay, MCF-7; assay type: cell-based, human; conditions: IC50 non-tumor cell line (MCF-10A)/IC50 MCF-7
Method: (§1) To assess the effect of the different drugs on cell viability we used the sulforhodamine-B colorimetric assay. Cells were resuspended and seeded at a density of 5 × 10^3 cells/well onto 12-well plates kept growing for 24 h. After that, the compounds were added at different concentrations to the cells (0.5, 0.7, 1, 2, 5, and 10 μM) (Figure 1). After 72 h treatment, the medium was discarded and fresh medium and treatment was added. Cells were maintained for 3 days more with the treatment. Finally, they were processed as previously described ([Boulaiz et al., 2003b]) using a Titertek Multiscan apparatus (Flow Laboratories, Irvine, United Kingdom) at 492 nm. We used the cell number for each cell stock before each cell growth experiment to set the linearity of the sulforhodamine-B assay. To calculate the IC50 values we used semilogarithmic dose–response curves to make a linear interpolation. All of the experiments were performed in triplicate wells for each treatment and were repeated at least twice.

MCF-7TG cancer cell line = assay: Sulforhodamine-B cytotoxicity assay, MCF-7TG (gef-expressing); assay type: cell-based, human; conditions: for Therapeutic index (TI) MCF-7TG: IC50 non-tumor cell line (MCF-10A)/IC50 MCF-7TG; for decrease of the IC50 (improved antiproliferative effect) in presence of the gef gene: MCF-7TG versus MCF-7; for enhanced chemosensitivity in the presence of gef gene: MCF-7TG versus MCF-7 IC50
Excerpt: The breast cancer cell line MCF-7 was kindly provided by Dr. N. Olea of the Sánchez Mora Tumoural Biology Institute (University Hospital of Granada). The MCF-7TG cell line, a gef-expressing breast cancer cell line controlled by a mouse mammary tumor virus promoter and inducible by dexamethasone (Dex) was derivates from MCF-7 cells following methodology previously described by us ([Boulaiz et al., 2003b]). A selected MCF-7pMAMneo empty vector positive clone was also used. Non-tumoral breast cell line MCF-10A (ATCC: CRL-10317) was provided by the Cell Bank of the University of Granada (Granada, Spain). MCF-7 cells were cultured in a humidified atmosphere at 37°C with 5% CO2 and Dulbecco’s modified Eagle Medium (DMEM) (Gibco, Grand Island, NY, United States) with 10% heat-inactivated fetal bovine serum (FBS) (Gibco), 2.7% sodium bicarbonate, 2% L-glutamine, 1% Hepes buffer, 500 mg/L ampicillin and 40 mg/L gentamicin. MCF-7TG cells were grown in the same medium described above supplemented by 200 μg/ml geneticin G418 and 1μM Dex to induce gef gene expression. MCF-10A grown in DMEM/F12 medium with 5% horse serum (HS), 0.02 μg/ml epithelial growth factor (EGF), 0.5 μg/ml hydrocortisone, 100 ng/ml cholera toxin and 0.01 μg/ml insulin.
as §1

SMILES | Therapeutic index (TI) MCF-7 (MCF-7 cancer cell line) | Therapeutic index (TI) MCF-7TG (MCF-7TG cancer cell line) | decrease of the IC50 (improved antiproliferative effect) in presence of the gef gene (MCF-7TG cancer cell line) | enhanced chemosensitivity in the presence of gef gene (MCF-7TG cancer cell line)
Nc1ccccc1S(=O)(=O)N1CC(n2cnc3c(Cl)nc(Cl)nc32)OCc2ccccc21 (centres unmarked) [FC-29b] | 0.8 | 2.12 | 62.15% | 2.65 fold
O=[N+]([O-])c1ccccc1S(=O)(=O)N1CC(n2cnc3c(Cl)nc(Cl)nc32)OCc2ccccc21 (centres unmarked) [FC-26c] | 3.53 | 14.13 | 75% | 4 fold
O=[N+]([O-])c1ccccc1S(=O)(=O)N1CC(n2cnc3nc(Cl)nc(Cl)c32)OCc2ccccc21 (centres unmarked) [FC-30b2] | 1.28 | 5.5 | 76.77% | 4.31 fold
O=[N+]([O-])c1ccc(S(=O)(=O)N2CC(n3cnc4c(Cl)nc(Cl)nc43)OCc3ccccc32)cc1 (racemic) [Bozepinib, (R,S)-2,6-dichloro-9-[1-(p-nitrobenzenesulfonyl)-1,2,3,5-tetrahydro-4,1-benzoxazepine-3-yl]-9H-purine] | 5.14 | 11.30 | 54.55% | 2.2 fold
O=S(=O)(c1ccccc1NO)N1CC(n2cnc3c(Cl)nc(Cl)nc32)OCc2ccccc21 (centres unmarked) [FC-29d] | 5.24 | 7.032 |  | 1.08 fold
COC(CN(c1ccccc1CO)S(=O)(=O)c1ccc([N+](=O)[O-])cc1)n1cnc2c(Cl)nc(Cl)nc21 (centres unmarked) [ACG-812c-F1] | 1.85 | 1.99 | 7.211% | 1.34 fold
